Test results: patent publication US10124019B2, “Compositions and their use for removing cholesterol” (Cornell University, priority 2009, dated 2018)

Tested on: WT (GM05659) and NPC (GM03123) human fibroblasts
Assay: Sub-cellular localization and uptake of Alexa555-conjugated rhASM
Format: cell-based
Details: 3 μg/mL, 24 hours
Method: WT (GM5659) and NPC (GM03123) Fbs were incubated with or without 3 μg/mL Alexa555-conjugated rhASM for 24 hours. To remove surface-bound label, the cells were further incubated for 15 min with a growth medium without the enzyme. Finally, the cells were washed with PBS, fixed with 1.5% PFA, and stained with filipin for imaging and quantification. […] Color overlays for filipin (green) and rhASM-Alexa555 (red) are shown in panels (C, F and I). The images in the inset are the zoomed color overlays of the region marked in (C, F and I). Scale bar=10 μm.
For identifying the localization of rhASM in the cells, recombinant enzyme was conjugated with Alexa555 (Invitrogen) according to the manufacturer's protocol. Normal (GM05659) and NPC1 human fibroblasts (GM03123) were incubated in a medium containing 3 μg/mL Alexa555-rhASM for 24 h prior to fixing and staining with filipin. Images were acquired using standard UV and TRITC filters for filipin and Alexa555-labeled rhASM, and quantified.
To ascertain whether exogenously added rhASM was localized and processed in late endosomal organelles, WT (GM05659) and NPC (GM03123) human fibroblasts were incubated for 24 hours in the absence or presence of 3 μg/mL of Alexa555-labeled rhASM. […] The cells were then washed, fixed and stained with filipin for imaging and quantification. […]

B1: rhASM-Alexa555: recombinant enzyme conjugated with Alexa555 (conjugate, UniProt P17405 47-631, looked up)
Sphingomyelin …: LALSDSRVLWAPAEAHPLSPQGHPARLHRIVPRLRDVFGWGNLTCPICKGLFTAINLGLKKEPNVARVGSVAIKLCNLLKIAPPAVCQSIVHLFEDDMVEVWRRSVLSPSEACGLLLGSTCGHWDIFSSWNISLPTVPKPPPKPPSPPAPGAPVSRILFLTDLHWDHDYLEGTDPDCADPLCCRRGSGLPPASRPGAGYWGEYSKCDLPLRTLESLLSGLGPAGPFDMVYWTGDIPAHDVWHQTRQDQLRALTTVTALVRKFLGPVPVYPAVGNHESTPVNSFPPPFIEGNHSSRWLYEAMAKAWEPWLPAEALRTLRIGGFYALSPYPGLRLISLNMNFCSRENFWLLINSTDPAGQLQWLVGELQAAEDRGDKVHIIGHIPPGHCLKSWSWNYYRIVARYENTLAAQFFGHTHVDEFEVFYDEETLSRPLAVAFLAPSATTYIGLNPGYRVYQIDGNYSGSSHVVLDHETYILNLTQANIPGAIPHWQLLYRARETYGLPNTLPTAWHNLVYRMRGDMQLFQTFWFLYHKGHPPSEPCGTPCRLATLCAQLSARADSPALCRHLMPDGSLPEAQSLWPRPLFC
modifications: Alexa555 label
  sub-cellular localization: specifically localized to cholesterol-laden storage organelles
10 mM mannose-6-phosphate
  uptake in the presence of excess mannose-6-phosphate: completely blocked
